Laboratory results taken from doi:10.1101/2020.09.11.292599.
No constants are given. Whether binding was seen depends on the method and setting. Some entries that bind do so weakly or less than the wild type. Tags and fused reporters may be left off the sequences shown.

The chains behind the UniProt entries cited, without tags or fusion partners.
UniProt Q55247, whole entry: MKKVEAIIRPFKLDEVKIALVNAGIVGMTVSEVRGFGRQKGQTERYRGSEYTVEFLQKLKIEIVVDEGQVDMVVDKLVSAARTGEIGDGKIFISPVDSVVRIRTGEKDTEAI

T1: His6-tagged 2,3-bisphosphoglycerate-independent phosphoglycerate mutase (PGAM, Slr1945) (Synechocystis sp. PCC 6803) (UniProt P74507)
T1 sequence: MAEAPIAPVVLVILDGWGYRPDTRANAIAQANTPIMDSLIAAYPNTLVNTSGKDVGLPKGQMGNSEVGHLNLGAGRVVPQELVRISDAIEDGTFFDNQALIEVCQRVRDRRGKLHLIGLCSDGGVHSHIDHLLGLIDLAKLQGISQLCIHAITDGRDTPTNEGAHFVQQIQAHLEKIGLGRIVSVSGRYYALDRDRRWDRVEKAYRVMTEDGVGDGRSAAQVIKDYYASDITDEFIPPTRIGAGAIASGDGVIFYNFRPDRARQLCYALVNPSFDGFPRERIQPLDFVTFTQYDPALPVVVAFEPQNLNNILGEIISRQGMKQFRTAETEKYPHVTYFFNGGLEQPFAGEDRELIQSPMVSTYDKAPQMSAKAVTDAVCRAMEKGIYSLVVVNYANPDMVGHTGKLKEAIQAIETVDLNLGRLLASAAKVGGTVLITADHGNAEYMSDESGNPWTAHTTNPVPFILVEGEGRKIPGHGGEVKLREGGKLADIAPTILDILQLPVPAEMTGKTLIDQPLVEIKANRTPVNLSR

B1: His6-PirC (Sll0944), 112 amino acid version starting at Met 53 (protein, UniProt P77971 53-164)
chain: MSQILDPIPNNQPSALFCCYVNATNQIQVARITNVPNWYFERVVFPGQRLVFEAVPSAQLEIHTGMMASSIISDTIPCEQLSIDPDGLAAGGFISPEKEHESEDMTSQSLVA
B2: Strep-tagged PirC (Sll0944), 112 amino acid version starting at Met 53 (protein, UniProt P77971 53-164)
chain: B1 chain

Key:
Strep-PII = Strep-PII (UniProt Q55247); test: pull-down
[1] = biological target: C-terminally His8-tagged PII (UniProt Q55247); test: BLI
[2] = biological target: T1, His6-tagged 2,3-bisphosphoglycerate-independent phosphoglycerate mutase (PGAM, Slr1945) (Synechocystis sp. PCC 6803); test: BLI

| Binder | binding (Strep-PII) | binding [1] | binding [2] |
| --- | --- | --- | --- |
| B1 | binds | – | – |
| B2 | – | binds weakly | binds |
